{"source": "the supplement of paper PMC10382679", "parents": {"B1": {"name": "Rpb7; numbered along this chain (parent)", "chain": "MFFIKDLSLNITLHPSFFGPRMKQYLKTKLLEEVEGSCTGKFGYILCVLDYDNIDIQRGRILPTDGSAEFNVKYRAVVFKPFKGEVVDGTVVSCSQHGFEVQVGPMKVFVTKHLMPQDLTFNAGSNPPSYQSSEDVITIKSRIRVKIEGCISQVSSIHAIGSIKEDYLGAI"}}, "key": {"[1]": {"variants_of": "B1", "assay": "log2 fold change of mutant abundance, UV-irradiated vs unirradiated; higher = more UV resistant (enriched after UV)", "conditions": "with Saccharomyces cerevisiae rad7Δ rad26Δ; UV dose (J/m2): 10; genetic background: rad7Δ rad26Δ rpb7Δ + plasmid RPB7 library; outgrowth: 10 cell divisions"}, "[2]": {"variants_of": "B1", "assay": "NOISeq theta enrichment statistic, UV-irradiated vs unirradiated (dimensionless); higher = more UV resistant (enriched after UV)", "conditions": "with Saccharomyces cerevisiae rad7Δ rad26Δ; UV dose (J/m2): 10; genetic background: rad7Δ rad26Δ rpb7Δ + plasmid RPB7 library; outgrowth: 10 cell divisions"}}, "note": "Single values of this set are uncertain.", "data": [{"variant": "MFFIKDLSLNITLHPSFFGPRMKQYLKTKLLEEVEGSCTGKFGYILCVLDYDNIDIQRGRILYTDGSAEFNVKYRAVVFKPFKGEVVDGTVVSCSQHGFEVQVGPMKVFVTKHLMPQDLTFNAGSNPPSYQSSEDVITIKSRIRVKIEGCISQVSSIHAIGSIKEDYLGAI", "note": "[P63Y]", "values": [{"measurement": "log2 fold change of mutant abundance", "setting": "[1]", "result": -0.48}, {"measurement": "NOISeq theta enrichment statistic", "setting": "[2]", "result": -0.341}]}, {"variant": "MFFIKDLSLNITLHPSFFGPRMKQYLKTKLLEEVEGSCTGKFGYILCVLDYDNIDIQRGRILPADGSAEFNVKYRAVVFKPFKGEVVDGTVVSCSQHGFEVQVGPMKVFVTKHLMPQDLTFNAGSNPPSYQSSEDVITIKSRIRVKIEGCISQVSSIHAIGSIKEDYLGAI", "note": "[T64A]", "values": [{"measurement": "log2 fold change of mutant abundance", "setting": "[1]", "result": -0.0215}, {"measurement": "NOISeq theta enrichment statistic", "setting": "[2]", "result": -0.107}]}, {"variant": "MFFIKDLSLNITLHPSFFGPRMKQYLKTKLLEEVEGSCTGKFGYILCVLDYDNIDIQRGRILPHDGSAEFNVKYRAVVFKPFKGEVVDGTVVSCSQHGFEVQVGPMKVFVTKHLMPQDLTFNAGSNPPSYQSSEDVITIKSRIRVKIEGCISQVSSIHAIGSIKEDYLGAI", "note": "[T64H]", "values": [{"measurement": "log2 fold change of mutant abundance", "setting": "[1]", "result": -0.174}, {"measurement": "NOISeq theta enrichment statistic", "setting": "[2]", "result": -0.0927}]}, {"variant": "MFFIKDLSLNITLHPSFFGPRMKQYLKTKLLEEVEGSCTGKFGYILCVLDYDNIDIQRGRILPIDGSAEFNVKYRAVVFKPFKGEVVDGTVVSCSQHGFEVQVGPMKVFVTKHLMPQDLTFNAGSNPPSYQSSEDVITIKSRIRVKIEGCISQVSSIHAIGSIKEDYLGAI", "note": "[T64I]", "values": [{"measurement": "log2 fold change of mutant abundance", "setting": "[1]", "result": -0.0156}, {"measurement": "NOISeq theta enrichment statistic", "setting": "[2]", "result": -0.0595}]}, {"variant": "MFFIKDLSLNITLHPSFFGPRMKQYLKTKLLEEVEGSCTGKFGYILCVLDYDNIDIQRGRILPKDGSAEFNVKYRAVVFKPFKGEVVDGTVVSCSQHGFEVQVGPMKVFVTKHLMPQDLTFNAGSNPPSYQSSEDVITIKSRIRVKIEGCISQVSSIHAIGSIKEDYLGAI", "note": "[T64K]", "values": [{"measurement": "log2 fold change of mutant abundance", "setting": "[1]", "result": 0.08}, {"measurement": "NOISeq theta enrichment statistic", "setting": "[2]", "result": 0.185}]}, {"variant": "MFFIKDLSLNITLHPSFFGPRMKQYLKTKLLEEVEGSCTGKFGYILCVLDYDNIDIQRGRILPLDGSAEFNVKYRAVVFKPFKGEVVDGTVVSCSQHGFEVQVGPMKVFVTKHLMPQDLTFNAGSNPPSYQSSEDVITIKSRIRVKIEGCISQVSSIHAIGSIKEDYLGAI", "note": "[T64L]", "values": [{"measurement": "log2 fold change of mutant abundance", "setting": "[1]", "result": 0.289}, {"measurement": "NOISeq theta enrichment statistic", "setting": "[2]", "result": 0.214}]}, {"variant": "MFFIKDLSLNITLHPSFFGPRMKQYLKTKLLEEVEGSCTGKFGYILCVLDYDNIDIQRGRILPMDGSAEFNVKYRAVVFKPFKGEVVDGTVVSCSQHGFEVQVGPMKVFVTKHLMPQDLTFNAGSNPPSYQSSEDVITIKSRIRVKIEGCISQVSSIHAIGSIKEDYLGAI", "note": "[T64M]", "values": [{"measurement": "log2 fold change of mutant abundance", "setting": "[1]", "result": 0.369}, {"measurement": "NOISeq theta enrichment statistic", "setting": "[2]", "result": 0.213}]}, {"variant": "MFFIKDLSLNITLHPSFFGPRMKQYLKTKLLEEVEGSCTGKFGYILCVLDYDNIDIQRGRILPNDGSAEFNVKYRAVVFKPFKGEVVDGTVVSCSQHGFEVQVGPMKVFVTKHLMPQDLTFNAGSNPPSYQSSEDVITIKSRIRVKIEGCISQVSSIHAIGSIKEDYLGAI", "note": "[T64N]", "values": [{"measurement": "log2 fold change of mutant abundance", "setting": "[1]", "result": 0.0828}, {"measurement": "NOISeq theta enrichment statistic", "setting": "[2]", "result": 0.0763}]}, {"variant": "MFFIKDLSLNITLHPSFFGPRMKQYLKTKLLEEVEGSCTGKFGYILCVLDYDNIDIQRGRILPPDGSAEFNVKYRAVVFKPFKGEVVDGTVVSCSQHGFEVQVGPMKVFVTKHLMPQDLTFNAGSNPPSYQSSEDVITIKSRIRVKIEGCISQVSSIHAIGSIKEDYLGAI", "note": "[T64P]", "values": [{"measurement": "log2 fold change of mutant abundance", "setting": "[1]", "result": -0.0417}, {"measurement": "NOISeq theta enrichment statistic", "setting": "[2]", "result": -0.101}]}]}
